For ten substances, binding results are on record in patent US20240366624A1, “METHODS AND COMPOSITIONS FOR TREATING THROMBOTIC DISEASE” (Washington University, priority 2023, published 2024).

Protein sequences, listed by entry. Tags and fused reporters are not part of them. Residues count along the entry.
UniProt O14545, residues 2-582: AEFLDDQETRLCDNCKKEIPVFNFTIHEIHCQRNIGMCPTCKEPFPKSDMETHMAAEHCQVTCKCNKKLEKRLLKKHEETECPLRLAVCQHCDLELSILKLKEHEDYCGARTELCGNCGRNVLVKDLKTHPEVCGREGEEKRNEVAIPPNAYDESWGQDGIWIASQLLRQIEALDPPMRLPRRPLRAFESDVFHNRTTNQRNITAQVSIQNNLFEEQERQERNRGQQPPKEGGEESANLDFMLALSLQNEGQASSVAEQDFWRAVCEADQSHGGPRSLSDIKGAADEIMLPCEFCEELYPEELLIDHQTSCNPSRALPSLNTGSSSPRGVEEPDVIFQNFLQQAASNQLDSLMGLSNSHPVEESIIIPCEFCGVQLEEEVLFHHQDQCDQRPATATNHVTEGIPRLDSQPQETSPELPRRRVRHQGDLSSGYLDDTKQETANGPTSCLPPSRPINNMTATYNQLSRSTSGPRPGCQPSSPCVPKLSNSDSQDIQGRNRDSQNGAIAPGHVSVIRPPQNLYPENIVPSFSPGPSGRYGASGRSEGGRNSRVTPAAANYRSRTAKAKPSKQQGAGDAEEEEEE
UniProt P07237, residues 18-508: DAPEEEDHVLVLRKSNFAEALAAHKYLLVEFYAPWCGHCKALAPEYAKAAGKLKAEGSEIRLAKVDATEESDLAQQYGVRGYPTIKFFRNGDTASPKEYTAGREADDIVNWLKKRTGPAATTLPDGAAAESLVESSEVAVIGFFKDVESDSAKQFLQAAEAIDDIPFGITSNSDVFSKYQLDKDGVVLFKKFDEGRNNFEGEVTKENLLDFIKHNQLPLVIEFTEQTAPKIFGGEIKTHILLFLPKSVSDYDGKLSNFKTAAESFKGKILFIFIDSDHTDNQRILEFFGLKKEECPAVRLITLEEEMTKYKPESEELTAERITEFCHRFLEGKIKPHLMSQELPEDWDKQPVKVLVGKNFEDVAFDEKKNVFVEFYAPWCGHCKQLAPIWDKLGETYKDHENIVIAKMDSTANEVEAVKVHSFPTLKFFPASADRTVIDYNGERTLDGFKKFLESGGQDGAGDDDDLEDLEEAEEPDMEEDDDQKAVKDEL
UniProt Q9HCN6, residues 21-339: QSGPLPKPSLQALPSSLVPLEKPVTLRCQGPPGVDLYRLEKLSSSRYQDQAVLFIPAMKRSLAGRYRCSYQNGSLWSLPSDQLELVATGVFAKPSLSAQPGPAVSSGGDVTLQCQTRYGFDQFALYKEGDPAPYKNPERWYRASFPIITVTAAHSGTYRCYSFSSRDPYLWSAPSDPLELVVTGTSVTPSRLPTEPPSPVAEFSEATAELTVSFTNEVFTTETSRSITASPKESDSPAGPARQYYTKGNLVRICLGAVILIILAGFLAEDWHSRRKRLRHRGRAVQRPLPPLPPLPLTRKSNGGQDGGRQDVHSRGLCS
UniProt P07359, residues 17-652: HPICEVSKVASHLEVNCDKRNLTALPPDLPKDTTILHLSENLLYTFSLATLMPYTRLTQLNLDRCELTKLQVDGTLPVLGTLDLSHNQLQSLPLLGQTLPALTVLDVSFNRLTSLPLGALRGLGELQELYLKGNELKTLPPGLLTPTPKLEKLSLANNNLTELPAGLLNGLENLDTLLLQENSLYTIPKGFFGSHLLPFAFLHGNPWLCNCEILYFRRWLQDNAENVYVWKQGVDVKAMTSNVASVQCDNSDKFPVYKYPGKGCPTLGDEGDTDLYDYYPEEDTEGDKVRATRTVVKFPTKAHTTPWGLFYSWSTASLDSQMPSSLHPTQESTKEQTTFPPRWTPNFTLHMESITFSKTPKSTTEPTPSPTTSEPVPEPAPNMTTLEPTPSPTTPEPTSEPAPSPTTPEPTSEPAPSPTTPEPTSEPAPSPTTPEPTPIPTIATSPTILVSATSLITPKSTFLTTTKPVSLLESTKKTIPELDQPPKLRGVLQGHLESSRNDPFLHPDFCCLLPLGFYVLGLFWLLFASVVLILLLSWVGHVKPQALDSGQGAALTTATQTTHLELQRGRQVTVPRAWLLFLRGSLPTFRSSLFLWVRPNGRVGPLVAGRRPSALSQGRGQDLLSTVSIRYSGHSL
UniProt Q13576: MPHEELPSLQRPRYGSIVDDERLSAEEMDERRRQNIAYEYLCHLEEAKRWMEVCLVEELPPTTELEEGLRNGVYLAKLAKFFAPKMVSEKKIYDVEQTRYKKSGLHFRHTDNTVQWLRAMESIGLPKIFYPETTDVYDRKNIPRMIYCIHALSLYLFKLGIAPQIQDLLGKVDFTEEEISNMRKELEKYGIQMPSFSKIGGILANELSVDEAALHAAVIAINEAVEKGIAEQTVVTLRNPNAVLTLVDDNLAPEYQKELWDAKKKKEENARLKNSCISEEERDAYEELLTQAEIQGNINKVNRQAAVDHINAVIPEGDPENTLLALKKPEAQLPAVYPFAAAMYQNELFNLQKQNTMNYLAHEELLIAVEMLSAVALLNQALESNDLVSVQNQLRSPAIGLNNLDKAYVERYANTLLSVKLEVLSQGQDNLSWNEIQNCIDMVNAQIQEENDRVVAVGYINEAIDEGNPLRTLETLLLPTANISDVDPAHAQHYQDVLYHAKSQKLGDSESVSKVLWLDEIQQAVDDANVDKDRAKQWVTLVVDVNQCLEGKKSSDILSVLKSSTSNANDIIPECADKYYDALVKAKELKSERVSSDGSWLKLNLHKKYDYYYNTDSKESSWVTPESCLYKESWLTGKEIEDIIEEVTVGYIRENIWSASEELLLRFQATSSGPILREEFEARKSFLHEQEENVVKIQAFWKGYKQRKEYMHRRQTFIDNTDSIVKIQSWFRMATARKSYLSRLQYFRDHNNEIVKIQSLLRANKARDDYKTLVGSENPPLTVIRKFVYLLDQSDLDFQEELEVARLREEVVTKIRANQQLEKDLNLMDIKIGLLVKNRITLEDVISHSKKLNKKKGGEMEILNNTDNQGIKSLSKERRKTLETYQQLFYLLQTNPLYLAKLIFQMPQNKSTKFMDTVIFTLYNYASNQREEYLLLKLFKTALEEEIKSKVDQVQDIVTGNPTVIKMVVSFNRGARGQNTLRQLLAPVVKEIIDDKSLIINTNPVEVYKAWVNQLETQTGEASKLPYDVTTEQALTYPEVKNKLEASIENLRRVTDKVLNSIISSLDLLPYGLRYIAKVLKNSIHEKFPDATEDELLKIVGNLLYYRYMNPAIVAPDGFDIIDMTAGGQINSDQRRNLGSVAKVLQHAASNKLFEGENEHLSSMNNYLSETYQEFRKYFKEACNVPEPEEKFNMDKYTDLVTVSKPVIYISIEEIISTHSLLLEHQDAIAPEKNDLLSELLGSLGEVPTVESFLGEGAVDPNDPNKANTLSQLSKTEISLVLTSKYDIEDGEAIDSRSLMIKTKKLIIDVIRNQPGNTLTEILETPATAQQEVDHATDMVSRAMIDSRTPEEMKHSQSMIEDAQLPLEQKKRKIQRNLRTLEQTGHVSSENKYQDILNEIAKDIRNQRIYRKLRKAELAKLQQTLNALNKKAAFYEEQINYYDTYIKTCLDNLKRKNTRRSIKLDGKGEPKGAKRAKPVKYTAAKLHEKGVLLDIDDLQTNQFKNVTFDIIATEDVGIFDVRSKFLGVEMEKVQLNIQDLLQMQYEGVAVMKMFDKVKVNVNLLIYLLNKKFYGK
UniProt P60174, residues 2-249: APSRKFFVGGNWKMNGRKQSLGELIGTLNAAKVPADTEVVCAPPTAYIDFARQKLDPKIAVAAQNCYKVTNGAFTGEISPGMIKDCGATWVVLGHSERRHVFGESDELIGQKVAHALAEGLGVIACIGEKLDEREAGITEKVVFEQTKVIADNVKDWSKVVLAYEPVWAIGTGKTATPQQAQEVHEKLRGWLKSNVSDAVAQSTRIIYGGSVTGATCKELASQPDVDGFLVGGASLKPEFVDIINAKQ
UniProt Q9NYU2, residues 43-1555: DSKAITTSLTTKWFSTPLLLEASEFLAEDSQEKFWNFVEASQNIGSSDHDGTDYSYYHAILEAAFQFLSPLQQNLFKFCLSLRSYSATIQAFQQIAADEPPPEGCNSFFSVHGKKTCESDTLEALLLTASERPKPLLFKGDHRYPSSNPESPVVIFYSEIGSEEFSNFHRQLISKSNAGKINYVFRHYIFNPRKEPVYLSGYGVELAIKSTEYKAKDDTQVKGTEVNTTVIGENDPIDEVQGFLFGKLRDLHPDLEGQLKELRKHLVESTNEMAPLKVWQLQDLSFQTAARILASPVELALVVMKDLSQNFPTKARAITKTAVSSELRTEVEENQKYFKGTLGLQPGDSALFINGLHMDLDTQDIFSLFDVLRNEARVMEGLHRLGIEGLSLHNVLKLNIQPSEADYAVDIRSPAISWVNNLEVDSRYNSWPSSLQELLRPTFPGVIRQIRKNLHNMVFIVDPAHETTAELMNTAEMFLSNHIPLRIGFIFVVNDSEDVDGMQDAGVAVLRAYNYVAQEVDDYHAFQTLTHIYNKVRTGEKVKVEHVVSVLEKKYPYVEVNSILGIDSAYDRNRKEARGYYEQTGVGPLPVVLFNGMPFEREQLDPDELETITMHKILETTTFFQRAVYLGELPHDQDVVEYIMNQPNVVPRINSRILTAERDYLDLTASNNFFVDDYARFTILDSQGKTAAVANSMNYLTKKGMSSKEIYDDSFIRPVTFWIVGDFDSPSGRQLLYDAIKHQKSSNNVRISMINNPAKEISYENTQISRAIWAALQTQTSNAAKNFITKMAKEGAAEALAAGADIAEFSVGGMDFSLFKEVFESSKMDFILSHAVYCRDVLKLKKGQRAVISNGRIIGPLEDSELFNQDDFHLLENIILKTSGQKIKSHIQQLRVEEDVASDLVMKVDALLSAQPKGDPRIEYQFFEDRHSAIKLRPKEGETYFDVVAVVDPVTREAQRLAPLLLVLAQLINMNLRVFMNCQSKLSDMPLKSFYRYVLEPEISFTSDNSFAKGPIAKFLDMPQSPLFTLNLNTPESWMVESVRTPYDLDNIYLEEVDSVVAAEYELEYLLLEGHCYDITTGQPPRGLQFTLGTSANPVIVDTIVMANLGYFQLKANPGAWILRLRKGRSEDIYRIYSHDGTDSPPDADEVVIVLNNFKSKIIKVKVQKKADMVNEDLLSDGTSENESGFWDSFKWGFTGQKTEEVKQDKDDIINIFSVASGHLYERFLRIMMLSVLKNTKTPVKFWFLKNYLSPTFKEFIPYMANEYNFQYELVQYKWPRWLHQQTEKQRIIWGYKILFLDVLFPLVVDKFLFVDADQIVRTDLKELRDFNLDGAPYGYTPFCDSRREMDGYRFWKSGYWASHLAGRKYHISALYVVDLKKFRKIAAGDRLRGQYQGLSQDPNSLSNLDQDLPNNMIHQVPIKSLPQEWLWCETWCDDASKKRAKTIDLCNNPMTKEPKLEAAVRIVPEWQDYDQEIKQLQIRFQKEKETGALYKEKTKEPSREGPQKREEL
UniProt P05106, residues 27-788: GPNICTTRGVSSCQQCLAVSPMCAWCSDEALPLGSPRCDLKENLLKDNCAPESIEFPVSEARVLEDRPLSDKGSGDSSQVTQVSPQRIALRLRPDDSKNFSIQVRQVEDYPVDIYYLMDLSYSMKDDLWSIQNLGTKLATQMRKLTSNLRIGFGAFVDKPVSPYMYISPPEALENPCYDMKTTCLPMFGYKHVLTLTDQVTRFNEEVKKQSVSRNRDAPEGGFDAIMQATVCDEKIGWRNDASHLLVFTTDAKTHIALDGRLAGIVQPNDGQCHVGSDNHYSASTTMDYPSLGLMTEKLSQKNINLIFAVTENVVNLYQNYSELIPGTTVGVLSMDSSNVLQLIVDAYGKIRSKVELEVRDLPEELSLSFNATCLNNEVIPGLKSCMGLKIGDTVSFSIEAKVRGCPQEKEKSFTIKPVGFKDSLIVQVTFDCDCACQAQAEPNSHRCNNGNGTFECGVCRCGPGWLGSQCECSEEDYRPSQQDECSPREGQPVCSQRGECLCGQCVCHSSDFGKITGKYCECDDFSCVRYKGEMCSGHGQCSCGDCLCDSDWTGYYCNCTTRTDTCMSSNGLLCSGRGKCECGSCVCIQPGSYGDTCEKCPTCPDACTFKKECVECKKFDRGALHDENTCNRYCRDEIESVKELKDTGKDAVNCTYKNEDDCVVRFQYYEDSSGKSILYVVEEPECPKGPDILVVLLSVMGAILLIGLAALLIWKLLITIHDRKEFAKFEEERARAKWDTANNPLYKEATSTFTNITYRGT

Results are given in words; binding and its absence hold for the method and conditions named. In cells and extracts the contact can be indirect. A yes stands for co-enrichment or nearness to the bait. Other partners may have been found.

The first test addresses T1, human platelet ERO1α (human) (UniProt Q96HE7).
T1 sequence (looked up): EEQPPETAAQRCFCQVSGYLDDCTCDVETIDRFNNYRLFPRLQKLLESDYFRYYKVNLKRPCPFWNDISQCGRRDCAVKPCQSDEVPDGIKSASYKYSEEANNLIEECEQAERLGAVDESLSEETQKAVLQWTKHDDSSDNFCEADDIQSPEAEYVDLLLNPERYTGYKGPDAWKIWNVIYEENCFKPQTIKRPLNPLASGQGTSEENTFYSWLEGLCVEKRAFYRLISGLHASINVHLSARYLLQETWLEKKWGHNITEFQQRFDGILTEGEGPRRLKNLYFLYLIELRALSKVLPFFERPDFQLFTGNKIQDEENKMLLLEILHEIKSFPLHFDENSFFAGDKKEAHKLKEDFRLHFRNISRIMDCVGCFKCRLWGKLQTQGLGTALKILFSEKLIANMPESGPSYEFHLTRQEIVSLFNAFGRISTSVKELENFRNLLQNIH
The test can be described thus: co-immunoprecipitation of ERO1α from lysates of resting and thrombin-activated human platelets, mass spectrometry; volcano plot thrombin versus no thrombin.
As for DYNC1H1 (from UniProt Q14204), the binding entry is listed as “binds”.
Consider TRAFD1 (from UniProt O14545), for which the binding entry was “binds”.

Another test deals with human platelet PDI (protein disulfide isomerase) (human) (UniProt P07237). The test can be described thus: co-immunoprecipitation with biotinylated polyclonal anti-PDI antibodies from lysates of resting and thrombin-treated human platelets, trypsin digestion, mass spectrometry; volcano plot thrombin versus no thrombin.
With CLINT1 (from UniProt Q14677), the binding result is “binds”.
Still for that read-out and setting: then GP6 (from UniProt Q9HCN6) (receptor), with “binds”; and “GP Ibα (glycoprotein Ibα, human platelets) (from UniProt P07359 17-652) (receptor)”, with “binds”; and IQGAP2 (from UniProt Q13576), with “binds”.
Same read-out and setting: for LDHB (from UniProt P07195) (enzyme) the value was “binds”.
Still for that read-out and setting: for TPI1 (from UniProt P60174) (enzyme) the value was “binds”.
“uridine diphosphate-glucose GP glucosyltransferase 1 (from UniProt Q9NYU2 43-1555) (enzyme)”: the binding entry was “binds”.
Take “β3 integrin (human platelets) (from UniProt P05106 27-788) (receptor)”: the binding entry is “binds”.
